PubChem BioAssay AID1259254 | NCATS – 2017
The whole screen tested about 59,000 reagents; this is a random part of them. About 1,550 of them (2.6%) count as active. 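G2 share is only a proxy for re-replication; each gene was hit by three separate siRNAs, and active genes were retested.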 Raw values are not corrected between plates. Reagents against one gene are numbered here. Reagent sequences are not shown. Not stated in the record: the amount of reagent.

Test: 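Gene knock-downs that lead to re-replication, shown by excess G2 DNA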 (primary screen)
System: human HCT116 colorectal cancer cells
Reagent: single siRNA against human genes
Time to read-out: 3 days
Read-out: 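Nuclei stained with Hoechst and imaged; cell-cycle phase assigned by DNA content; G2 share scaled per plate, non-targeting siRNA 0%, GMNN siRNA 100%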
Direction: G2 robust z-score and G2 cells, % of GMNN control: higher = more G2 cells, more excess DNA replication; raw share of cells in G2: higher = larger share of cells with G2 DNA content
Hit rule: 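An siRNA counts as active if its G2 robust z-score lies at least 5 MADs above the screen median; here such calls match roughly 38% of GMNN control or more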

| target gene | siRNA no. | G2 robust z-score | G2 cells, % of GMNN control | raw share of cells in G2 (%) | outcome |
| --- | --- | --- | --- | --- | --- |
| NFIA-AS1 (GeneID 645030) | 1 | 0.0169 | 3.09 | 4.04 | inactive |
| NFIA-AS1 (GeneID 645030) | 2 | 2.07 | 17.6 | 10.3 | inactive |
| NFIA-AS1 (GeneID 645030) | 3 | 0.51 | 6.55 | 5.63 | inactive |
| FXR2 (GeneID 9513) | 1 | 1.42 | 12.9 | 7.62 | inactive |
| FXR2 (GeneID 9513) | 2 | 1.92 | 16.5 | 11.4 | inactive |
| FXR2 (GeneID 9513) | 3 | 0.22 | 4.52 | 6.91 | inactive |
| DEFB130A (GeneID 245940) | 1 | 1.88 | 16.2 | 8.68 | inactive |
| DEFB130A (GeneID 245940) | 2 | 0.0987 | 3.66 | 4.36 | inactive |
| DEFB130A (GeneID 245940) | 3 | 0.389 | 5.71 | 5.65 | inactive |
| TMPRSS4 (GeneID 56649) | 1 | -0.29 | 0.928 | 5.88 | inactive |
| TMPRSS4 (GeneID 56649) | 2 | 5.23 | 39.7 | 19 | active |
| TMPRSS4 (GeneID 56649) | 3 | -0.779 | -2.51 | 2.97 | inactive |
| FAM230B (GeneID 642633) | 1 | 3.85 | 30 | 13.3 | inactive |
| FAM230B (GeneID 642633) | 2 | 0.201 | 4.38 | 5.31 | inactive |
| FAM230B (GeneID 642633) | 3 | -0.446 | -0.17 | 3.35 | inactive |
| CYP26A1 (GeneID 1592) | 1 | 3.23 | 25.7 | 14.4 | inactive |
| CYP26A1 (GeneID 1592) | 2 | 0.57 | 6.98 | 6.5 | inactive |
| CYP26A1 (GeneID 1592) | 3 | 0.0951 | 3.64 | 6.26 | inactive |
| GDPD5 (GeneID 81544) | 1 | 0.324 | 5.25 | 7.62 | inactive |
| GDPD5 (GeneID 81544) | 2 | -0.836 | -2.91 | 3.14 | inactive |
| GDPD5 (GeneID 81544) | 3 | 0.372 | 5.58 | 6.85 | inactive |
| DNAJC13 (GeneID 23317) | 1 | -0.423 | -0.00821 | 3.52 | inactive |
| DNAJC13 (GeneID 23317) | 2 | -0.811 | -2.74 | 4.77 | inactive |
| DNAJC13 (GeneID 23317) | 3 | 3.19 | 25.4 | 14 | inactive |
| SARNP (GeneID 84324) | 1 | 0.0597 | 3.39 | 6.04 | inactive |
| SARNP (GeneID 84324) | 2 | 0.142 | 3.97 | 5.63 | inactive |
| SARNP (GeneID 84324) | 3 | 0.0397 | 3.25 | 6.78 | inactive |
| HNRNPM (GeneID 4670) | 1 | -0.755 | -2.34 | 2.42 | inactive |
| HNRNPM (GeneID 4670) | 2 | 0.569 | 6.97 | 8.06 | inactive |
| HNRNPM (GeneID 4670) | 3 | 2.15 | 18.1 | 12.6 | inactive |

3 entries from above in another layout.
{"target gene":"NFIA-AS1 (GeneID 645030)","siRNA no.":3,"G2 robust z-score":0.51,"G2 cells, % of GMNN control":6.55,"raw share of cells in G2 (%)":5.63,"outcome":"inactive"}
{"target gene":"FXR2 (GeneID 9513)","siRNA no.":1,"G2 robust z-score":1.42,"G2 cells, % of GMNN control":12.9,"raw share of cells in G2 (%)":7.62,"outcome":"inactive"}
{"target gene":"FXR2 (GeneID 9513)","siRNA no.":2,"G2 robust z-score":1.92,"G2 cells, % of GMNN control":16.5,"raw share of cells in G2 (%)":11.4,"outcome":"inactive"}
